Reference: article doi:10.1101/2020.05.22.111740
Results are given in words; binding and its absence hold for the method and conditions named. In cells and extracts the contact can be indirect. Some entries that bind do so weakly or less than the wild type.

B1: retinoblastoma tumor suppressor (RB1) (protein, UniProt P06400 1-928)
chain: MPPKTPRKTAATAAAAAAEPPAPPPPPPPEEDPEQDSGPEDLPLVRLEFEETEEPDFTALCQKLKIPDHVRERAWLTWEKVSSVDGVLGGYIQKKKELWGICIFIAAVDLDEMSFTFTELQKNIEISVHKFFNLLKEIDTSTKVDNAMSRLLKKYDVLFALFSKLERTCELIYLTQPSSSISTEINSALVLKVSWITFLLAKGEVLQMEDDLVISFQLMLCVLDYFIKLSPPMLLKEPYKTAVIPINGSPRTPRRGQNRSARIAKQLENDTRIIEVLCKEHECNIDEVKNVYFKNFIPFMNSLGLVTSNGLPEVENLSKRYEEIYLKNKDLDARLFLDHDKTLQTDSIDSFETQRTPRKSNLDEEVNVIPPHTPVRTVMNTIQQLMMILNSASDQPSENLISYFNNCTVNPKESILKRVKDIGYIFKEKFAKAVGQGCVEIGSQRYKLGVRLYYRVMESMLKSEEERLSIQNFSKLLNDNIFHMSLLACALEVVMATYSRSTSQNLDSGTDLSFPWILNVLNLKAFDFYKVIESFIKAEGNLTREMIKHLERCEHRIMESLAWLSDSPLFDLIKQSKDREGPTDHLESACPLNLPLQNNHTAADMYLSPVRSPKKKGSTTRVNSTANAETQATSAFQTQKPLKSTSLSLFYKKVYRLAYLRLNTLCERLLSEHPELEHIIWTLFQHTLQNEYELMRDRHLDQIMMCSMYGICKVKNIDLKFKIIVTAYKDLPHAVQETFKRVLIKEEEYDSIIVFYNSVFMQRLKTNILQYASTRPPTLSPIPHIPRSPYKFPSSPLRIPGGNIYISPLKSPYKISEGLPTPTKMTPRSRILVSIGESFGTSEKFQKINQMVCNSDRVLKRSAEGSNPPKPLKKLRFDIEGSDEADGSKHLPGESKFQQKLAEMTSTRTRMQKQKMNDSMDTSNKEEK
B2: non-receptor protein tyrosine phosphatase type 14 (PTPN14) (protein, UniProt Q15678 1-1187)
chain: MPFGLKLRRTRRYNVLSKNCFVTRIRLLDSNVIECTLSVESTGQECLEAVAQRLELRETHYFGLWFLSKSQQARWVELEKPLKKHLDKFANEPLLFFGVMFYVPNVSWLQQEATRYQYYLQVKKDVLEGRLRCTLDQVIRLAGLAVQADFGDYNQFDSQDFLREYVLFPMDLALEEAVLEELTQKVAQEHKAHSGILPAEAELMYINEVERLDGFGQEIFPVKDNHGNCVHLGIFFMGIFVRNRIGRQAVIYRWNDMGNITHNKSTILVELINKEETALFHTDDIENAKYISRLFATRHKFYKQNKICTEQSNSPPPIRRQPTWSRSSLPRQQPYILPPVHVQCGEHYSETHTSQDSIFHGNEEALYCNSHNSLDLNYLNGTVTNGSVCSVHSVNSLNCSQSFIQASPVSSNLSIPGSDIMRADYIPSHRHSAIIVPSYRPTPDYETVMRQMKRGILHTDSQSQSLRNLNIINTHAYNQPEDLVYSQPEMRERHPYTVPYGPQGVYSNKLVSPSDQRNPKNNVVPSKPGASAISHTVSTPELANMQLQGSHNYSTAHMLKNYLFRPPPPYPRPRPATSTPDLASHRHKYVSGSSPDLVTRKVQLSVKTFQEDSSPVVHQSLQEVSEPLTATKHHGTVNKRHSLEVMNSMVRGMEAMTLKSLHLPMARRNTLREQGPPEEGSGSHEVPQLPQYHHKKTFSDATMLIHSSESEEEEEEAPESVPQIPMLREKMEYSAQLQAALARIPNKPPPEYPGPRKSVSNGALRQDQASLPPAMARARVLRHGPAKAISMSRTDPPAVNGASLGPSISEPDLTSVKERVKKEPVKERPVSEMFSLEDSIIEREMMIRNLEKQKMAGLEAQKRPLMLAALNGLSVARVSGREENRVDATRVPMDERFRTLKKKLEEGMVFTEYEQIPKKKANGIFSTAALPENAERSRIREVVPYEENRVELIPTKENNTGYINASHIKVVVGGAEWHYIATQGPLPHTCHDFWQMVWEQGVNVIAMVTAEEEGGRTKSHRYWPKLGSKHSSATYGKFKVTTKFRTDSVCYATTGLKVKHLLSGQERTVWHLQYTDWPDHGCPEDVQGFLSYLEEIQSVRRHTNSMLEGTKNRHPPIVVHCSAGVGRTGVLILSELMIYCLEHNEKVEVPMMLRLLREQRMFMIQTIAQYKFVYQVLIQFLQNSRLI

How the values were obtained:
Test in all cases: co-IP
[1] = biological target: HPV18 E7 WT (Flag and HA-tagged) (HPV18) (UniProt P06788)
[2] = biological target: HPV16 E7 R77S (Flag and HA-tagged) (HPV16) (UniProt P03129)
[3] = biological target: HPV16 E7 WT (Flag and HA-tagged) (HPV16) (UniProt P03129)
[4] = biological target: HPV18 E7 R84S (Flag and HA-tagged) (HPV18) (UniProt P06788)
[5] = biological target: HPV16 E7 Δ21-24 (Flag and HA-tagged) (HPV16) (UniProt P03129)

Binder | binding [1] | binding [2] | binding [3] | binding [4] | binding [5]
B1 | binds | binds | binds | binds | 
B2 | binds | no binding | binds | no binding | binds
